Values from PubChem BioAssay AID652259 (Drosophila RNAi Screening Center, 2013).
Assay: 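Knock-downs that push a Wingless-driven reporter up or down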 (primary screen). Cell system: Drosophila clone 8 imaginal disc epithelial cells. Reagents: long dsRNA against Drosophila genes. Conditions: pathway stimulated by co-transfected Wingless expression plasmid. Measured: 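Dual luciferase reads per well after Wingless plasmid stimulation: reporter firefly light and Renilla control light; activity is firefly divided by Renilla, a ratio not deposited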. Scale: firefly reporter light: higher = more Wg reporter light, before normalisation; Renilla control light: higher = more transfected or surviving cells. Hit rule: 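a knock-down is a candidate when at least two out of four statistical tests show it departing from its plate mean; one test alone signals a weak candidate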. Meaning of the calls: active = candidate regulator (raises or lowers reporter); inactive = not a candidate.
The deposit covers about 22,000 reagents; shown is a random part of those with a known target gene and a result. Of all reagents, 233 (1.1%) got an active call. 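Light values are raw, unnormalised plate reads; the ratio scores behind the reporter calls were not deposited.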 The numbers tell different reagents against one gene apart. Names joined by + are all predicted targets of the reagent. Not given: the amount of reagent, the time to read-out, the dose of the treatment.

Nthl1
- firefly reporter light, replicate 1: 2384
- firefly reporter light, replicate 2: 6066
- Renilla control light, replicate 1: 920
- Renilla control light, replicate 2: 2439
- Call: inactive

CG4872
- firefly reporter light, replicate 1: 2137
- firefly reporter light, replicate 2: 8179
- Renilla control light, replicate 1: 664
- Renilla control light, replicate 2: 2120
- Call: inactive

Tif-IA #1
- firefly reporter light, replicate 1: 8776
- Renilla control light, replicate 1: 3091
- Call: inactive

Tif-IA #2
- firefly reporter light, replicate 1: 2044
- firefly reporter light, replicate 2: 8612
- Renilla control light, replicate 1: 898
- Renilla control light, replicate 2: 3813
- Call: inactive

ATP8 (retired record)
- firefly reporter light, replicate 1: 21128
- Renilla control light, replicate 1: 11904
- Call: inactive

CG13002
- firefly reporter light, replicate 1: 20786
- Renilla control light, replicate 1: 8994
- Call: inactive

asrij
- firefly reporter light, replicate 1: 3437
- firefly reporter light, replicate 2: 7177
- Renilla control light, replicate 1: 786
- Renilla control light, replicate 2: 2560
- Call: inactive

CG17154
- firefly reporter light, replicate 1: 5129
- Renilla control light, replicate 1: 2165
- Call: inactive

TotM
- firefly reporter light, replicate 1: 3441
- firefly reporter light, replicate 2: 7259
- Renilla control light, replicate 1: 1484
- Renilla control light, replicate 2: 2649
- Call: inactive

Pfrx #1
- firefly reporter light, replicate 1: 20928
- Renilla control light, replicate 1: 11124
- Call: inactive

Pfrx #2
- firefly reporter light, replicate 1: 5082
- Renilla control light, replicate 1: 1568
- Call: inactive

Sec13
- firefly reporter light, replicate 1: 3164
- firefly reporter light, replicate 2: 9092
- Renilla control light, replicate 1: 1277
- Renilla control light, replicate 2: 1798
- Call: inactive

Apt1
- firefly reporter light, replicate 1: 8312
- Renilla control light, replicate 1: 2454
- Call: inactive

CG32212 + hpRNA:CR33940
- firefly reporter light, replicate 1: 2808
- Renilla control light, replicate 1: 1681
- Call: inactive

CG14074
- firefly reporter light, replicate 1: 5170
- Renilla control light, replicate 1: 2214
- Call: inactive

CG7702
- firefly reporter light, replicate 1: 2528
- firefly reporter light, replicate 2: 6311
- Renilla control light, replicate 1: 673
- Renilla control light, replicate 2: 1756
- Call: inactive

glob1
- firefly reporter light, replicate 1: 2961
- firefly reporter light, replicate 2: 5369
- Renilla control light, replicate 1: 1696
- Renilla control light, replicate 2: 1543
- Call: inactive

Dip-B
- firefly reporter light, replicate 1: 4592
- Renilla control light, replicate 1: 1408
- Call: inactive

BORCS6
- firefly reporter light, replicate 1: 6721
- Renilla control light, replicate 1: 4917
- Call: inactive

Pgam5
- firefly reporter light, replicate 1: 3112
- firefly reporter light, replicate 2: 5744
- Renilla control light, replicate 1: 1222
- Renilla control light, replicate 2: 2291
- Call: inactive

CR43105
- firefly reporter light, replicate 1: 22144
- Renilla control light, replicate 1: 14117
- Call: inactive

CG13577
- firefly reporter light, replicate 1: 1805
- firefly reporter light, replicate 2: 7618
- Renilla control light, replicate 1: 486
- Renilla control light, replicate 2: 2448
- Call: inactive

CG1764
- firefly reporter light, replicate 1: 2810
- firefly reporter light, replicate 2: 7078
- Renilla control light, replicate 1: 1251
- Renilla control light, replicate 2: 3128
- Call: inactive

CG10973
- firefly reporter light, replicate 1: 3376
- Renilla control light, replicate 1: 1749
- Call: inactive

CG17029
- firefly reporter light, replicate 1: 5828
- Renilla control light, replicate 1: 3009
- Call: inactive

Cad87A
- firefly reporter light, replicate 1: 5291
- Renilla control light, replicate 1: 2052
- Call: inactive

Mkp3 #1
- firefly reporter light, replicate 1: 5308
- Renilla control light, replicate 1: 2605
- Call: inactive

Mkp3 #2
- firefly reporter light, replicate 1: 14566
- Renilla control light, replicate 1: 4928
- Call: inactive

CG7296 #1
- firefly reporter light, replicate 1: 6444
- Renilla control light, replicate 1: 1980
- Call: inactive

CG7296 #2
- firefly reporter light, replicate 1: 3.27e5
- firefly reporter light, replicate 2: 3.60e5
- Renilla control light, replicate 1: 1.42e5
- Renilla control light, replicate 2: 1.61e5
- Call: inactive

CG34187 (retired record) + Trpm
- firefly reporter light, replicate 1: 23836
- Renilla control light, replicate 1: 18040
- Call: inactive

nec
- firefly reporter light, replicate 1: 2310
- firefly reporter light, replicate 2: 8443
- Renilla control light, replicate 1: 633
- Renilla control light, replicate 2: 3299
- Call: inactive
